Results as given in patent US20240368264A1.
Results are given in words; binding and its absence hold for the method and conditions named. Some binding calls cover weakened binding; strength is not graded here.

Chains of the proteins cited; added tags and fusions are not shown. Residues count along the entry.
UniProt Q969D9, residues 29-159: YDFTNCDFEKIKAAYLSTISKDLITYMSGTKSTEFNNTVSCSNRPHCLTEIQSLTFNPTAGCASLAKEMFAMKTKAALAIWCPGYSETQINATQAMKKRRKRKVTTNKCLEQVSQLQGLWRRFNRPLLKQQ

B1: Nb5-31 (VHH)
VHH: QVQLQESGGGSVQAGGSLRLSCTASGFTSGGSDMGWYRQAPGNECDLVSYISSDGSTYYADSVKGRFTISQDNAKNTVYLQMNSLKPEDTAVYYCAATDYGLGPPPSSTGQCYGMDYWGKGTQVTVSS
B2: Nb7-54 (VHH)
VHH: QVQLQESGGGSVQAGETLRLSCTASGFTFDDSDMGWYRQAPGNECELVSIISSDGMTYYADSVKGRFTISQDNAKNTVYLQMNSLKPEDTAVYYCAATKYSSDYDVAEDWRRGVCGDMDYWGKGTQVTVSS
B3: Nb10-63 (VHH)
VHH: QVQLQESGGGSVQAGGSLRLSCTASGFTLDDSDMGWYRQAPGDECELVSTISSLGGTYYADSVKGRFTISHDNAKNTVYLQMNSLKPHDTAVYYCAPGTDRYSDCPNEYSVWGQGTQVTVSS

Molecular target: TSLP-Biotin protein (UniProt Q969D9)
Experiment: flow cytometry blocking assay: antibody diluted 2-fold from 20 ug/mL with TSLP-Biotin on HEK293F/TSLPR transient cells, SA-PE, MFI; blocked partner: TSLPR on the cells

binding, binds:
B1
B2
B3
